# Hit rate of the full screen: of about 340,000 compounds, about 4,500 (1.3%) were called active. Inconclusive means that the source gave no clear call. Such entries were picked first, then a sample of the others. Calls come from the whole dose curve; as a rule, active = well fitted inhibition curve with a large enough effect; inconclusive = small, poorly fitted or top-dose-only effect, or another doubt; inactive = no such curve, though single readings can be large or run the other way. A potency beside an inconclusive call is a rough fit, not a confirmed value.
# Molecular target: DNA polymerase beta (Homo sapiens) (UniProt P06746)
# Assay: qHTS Assay for Inhibitors of DNA Polymerase Beta
# Details: Pol beta primer extension/strand displacement, fluorescence kinetic; activity change, negative = inhibition: at 114 µM (top of the series)
# Summary of the method: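 Values derive from four-parameter Hill fits of normalized kinetic data: reads at 0 and 10 min following addition of 50 nM substrate to 10 nM Pol beta preincubated 15 min with compound.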
# % is set by controls: 0 for no effect and ±100 for the full control effect; potency is the fitted concentration of half-maximal effect.
SMILES,Potency,"activity change, negative = inhibition"
CCOC(=O)c1cnc2cc(C(F)(F)F)ccc2c1N1CCN(c2cccc(Cl)c2)CC1,inactive,–
NC(=NCc1ccco1)NC(=O)c1ccc(Cl)cc1,inactive,–
Cc1ccc(-c2nnc(-c3ccc(NC(=O)Cc4cccs4)cc3)o2)cc1,"inconclusive: 0.501 µM [inhibitor, full curve, poor fit]",–
O=C(Nc1cccnc1)c1c(O)c2cccc3c2n(c1=O)CC3,"inconclusive: 3.16 µM [inhibitor, full curve, poor fit]",–
Cc1ccc2c(c1)c(=O)c1c3n2CCN(C(=O)CCl)C3CC1 (centres undefined),active: 15.8 µM,–
O=C(O)C1CC=C(Cl)CC1C(=O)NC1CCCCC1 (centres undefined),"inconclusive: 39.8 µM [inhibitor, single point]",–
CCc1c(C(=O)Nc2ccccc2)c(C)[nH]c(=S)c1C#N,"inconclusive: 0.158 µM [inhibitor, full curve, poor fit]",–
Cn1cccc1-c1nc2ccc(NC(=O)c3cccs3)cc2[nH]1,"inconclusive: 0.891 µM [inhibitor, full curve, poor fit]",–
C=CCN1C=C2C(=O)C(C)(OC(=O)C3CCCC3)C(=O)C=C2C=C1c1ccsc1 (centres undefined),inactive,–
Cc1ccc(C(=O)Nc2nnc(CC(=O)N/N=C/c3ccc(O)c(O)c3)s2)cc1,active: 3.55 µM,–
CC(=O)c1ccc(OC(=O)c2nc(-c3ccccc3)oc2C)cc1,active: 50.1 µM,–
C=COCCn1c(=N)n(CCC)c2ccccc21,inactive,–
CC1CN(c2ccccc2)C(=O)CS1 (centres undefined),active: 44.7 µM,–
COc1cc(OC)cc(-c2nc3nc(C)c(CCC(=O)Nc4ccc(C)c(C)c4)c(C)n3n2)c1,inactive,–
CC(C)c1nc(SCC(=O)N2CCN(c3ccccc3)CC2)c2c(=O)n(C)c(=O)n(C)c2n1,"inconclusive: 22.4 µM [inhibitor, partial curve, poor fit]",–
CC(C)=CCc1c(O)cc2oc3c(CC=C(C)C)c(O)c(O)c(CC=C(C)C)c3c(=O)c2c1O,active: 44.7 µM,–
NNC(=O)c1cc2cc3ccccc3nc2s1,"inconclusive: 1.12 µM [inhibitor, full curve]",–
O=C(c1ccc(N2CCOCC2)nc1)N1CCCCC1,"inconclusive: 89.1 µM [inhibitor, single point]",–
O=C(COc1ccc(Br)cc1)NCc1cn2ccccc2n1,–,inconclusive: -32.9% [inhibitor]
N#Cc1ccccc1NC(=O)CNc1ccccc1N1CCCCC1,"inconclusive: 0.141 µM [inhibitor, full curve, poor fit]",–
Brc1ccc(-c2nnc(-c3ccc4c(c3)OCO4)o2)o1,"inconclusive: 89.1 µM [inhibitor, single point]",–
CCc1nnc(NC(=O)CSc2nnnn2-c2cccc(C(=O)OC)c2)s1,inactive,–
O=C(CCSCc1ccccc1Cl)NC1CCCC1,"inconclusive: 3.98 µM [inhibitor, partial curve, poor fit]",–
CCc1cc(=O)oc2cc(C)c(CN3CCCC3)c(O)c12,active: 7.94 µM,–
Cc1ccc(NC(=O)Nc2cnccn2)cc1,inactive,–

# 3 entries from above, ordered by SMILES length, rising:
SMILES,Potency,"activity change, negative = inhibition"
NC(=NCc1ccco1)NC(=O)c1ccc(Cl)cc1,inactive,–
CC(=O)c1ccc(OC(=O)c2nc(-c3ccccc3)oc2C)cc1,active: 50.1 µM,–
CC(C)c1nc(SCC(=O)N2CCN(c3ccccc3)CC2)c2c(=O)n(C)c(=O)n(C)c2n1,"inconclusive: 22.4 µM [inhibitor, partial curve, poor fit]",–

# (list continues)

SMILES,Potency,"activity change, negative = inhibition"
CC1SCC(=O)N(CC(=O)NCCc2ccccc2)C1=O (centres undefined),"inconclusive: 79.4 µM [inhibitor, single point]",–
O=C(Nc1ccc(Cl)cn1)c1ccc([N+](=O)[O-])o1,"inconclusive: 44.7 µM [inhibitor, partial curve]",–
O=C(Nc1sc2c(c1C(=O)O)CCCC2)c1cccc(Cl)c1,"inconclusive: 39.8 µM [inhibitor, single point]",–
Cc1ccc2c(C)c(C(=O)N(Cc3cccs3)C3CCS(=O)(=O)C3)oc2c1 (centres undefined),"inconclusive: 89.1 µM [inhibitor, single point]",–
Fc1cccc(Nc2nc(-c3ccncc3)nc3ccccc23)c1,active: 12.6 µM,–
CCc1ccc(Nc2nn(-c3ccc(OC(F)(F)F)cc3)nc2C(C)=O)cc1,inactive,–
CCCN1Cc2cccc(C(=O)NCc3cccs3)c2C1=O,"inconclusive: 39.8 µM [inhibitor, single point]",–
COc1ccc(C)cc1NC(=O)C(=O)c1cn(CC(=O)N2CCCC2)c2ccccc12,inactive,–
O=C(NCSc1ccnc(SCNC(=O)c2ccccc2)n1)c1ccccc1,"inconclusive: 31.6 µM [inhibitor, single point]",–
O=c1c2oc3ccccc3c2n(Cc2cccc(Cl)c2)c(=O)n1Cc1ccco1,inactive,–
COc1ccc(/C(C#N)=C/c2cccnc2)cc1,"inconclusive: 79.4 µM [inhibitor, partial curve]",–
Cn1cc(C2=C(c3ccc(Cl)cc3Cl)C(=O)NC2=O)c2ccccc21,"inconclusive: 39.8 µM [inhibitor, single point]",–
Cn1c(SCC(=O)N/N=C/C=C/c2ccco2)nc2ccccc21,active: 22.4 µM,–
COc1ccc(CCN2C(=O)CC(C(N)=O)SC2=Nc2ccccc2)cc1 (centres undefined),"inconclusive: 56.2 µM [inhibitor, partial curve]",–
O=S(=O)(c1ccc(-c2ccon2)s1)N1CCN(c2ccccn2)CC1,"inconclusive: 89.1 µM [inhibitor, single point]",–
CC(C)c1ccc(NC(=O)c2ccc(Cn3nc(N4CCN(c5ccccc5)CC4)ccc3=O)o2)cc1,"inconclusive: 10 µM [inhibitor, full curve]",–
Cc1cccn2c(=O)c3cc(C(=O)NCc4ccco4)c(=N)n(CCc4ccccc4)c3nc12,–,inconclusive: -65.5% [inhibitor]
Cc1ccc(N2CCN(S(=O)(=O)c3ccc4c(c3)NC(=O)C(C)C(=O)N4)CC2C)cc1 (centres undefined),"inconclusive: 28.2 µM [inhibitor, full curve, poor fit]",–
CCn1c(SCC(=O)N/N=C/C=C\c2ccco2)nc2ccccc21,active: 17.8 µM,–
Cc1ccc(-c2nc3c(c(=O)[nH]c(=O)n3Cc3ccccc3)n2C)s1,"inconclusive: 0.794 µM [inhibitor, partial curve]",–
Cc1ccc(NC(=O)c2cc(NC(=O)/C=C\C(=O)O)ccc2N2CCCCC2)cc1,"inconclusive: 0.794 µM [inhibitor, full curve, poor fit]",–
CCc1cccc(OCC2Cn3c(nc4c3c(=O)n(C)c(=O)n4C)O2)c1 (centres undefined),"inconclusive: 5.62 µM [inhibitor, full curve]",–
CCC(=O)N1CCc2cc(CNS(=O)(=O)c3ccc(Br)s3)ccc21,"inconclusive: 89.1 µM [inhibitor, single point]",–
CC(=O)Nc1cccc(NC(=O)c2ccc(C(=O)Nc3cccc(NC(C)=O)c3)nc2)c1,"inconclusive: 4.47 µM [inhibitor, full curve, poor fit]",–
C=CCc1ccc(OCc2ccc(C(=O)Nc3ccc(NC(C)=O)cc3)o2)c(OC)c1,"inconclusive: 35.5 µM [inhibitor, single point]",–

SMILES,Potency,"activity change, negative = inhibition"
COc1ccc2c(c1)c(=O)oc1cc(OCC(=O)N3CCC(C)CC3)ccc12,active: 22.4 µM,–
COc1cccc(NC(=O)Cn2cc(C(=O)c3ccc(F)cc3)c(=O)c3cc(OC)ccc32)c1,inactive,–
O=C(N/N=C/c1cc(Cl)ccc1O)c1ccc(Br)cc1,active: 10 µM,–
Cc1ccc(S(=O)(=O)N2CCN(C(=O)c3ccccc3)CC2)cc1,inactive,–
Cc1ccc(Cl)cc1N1CCN(C(=O)c2ccc3c(c2)N(Cc2ccccc2F)C(=O)c2ccccc2S3=O)CC1 (centres undefined),inactive,–
Cc1ccc(CNC(=O)c2sc3nc(-c4ccccc4)cn3c2C)cc1,inactive,–
CC(=O)Nc1ccc(N=Cc2nc(-c3ccc(C)cc3)oc2O)cc1,"inconclusive: 4.47 µM [inhibitor, full curve, poor fit]",–
O=C(NC(=S)Nc1cc([N+](=O)[O-])ccc1O)c1ccc2c(c1)OCO2,active: 44.7 µM,–
CCc1cccc(NC(=O)C2CCC(CNS(=O)(=O)c3ccc4c(c3)CCCC(=O)N4)CC2)c1 (centres undefined),inactive,–
O=C(N/N=C/c1ccc([N+](=O)[O-])o1)c1ccc(O)cc1,"inconclusive: 70.8 µM [inhibitor, partial curve, poor fit]",–
Cc1cncn1CCc1nc2c3ccccc3nc(SCC(=O)Nc3ccc(F)cc3)n2n1,inactive,–
Cn1nc(-c2ccc(Cl)cc2)nc2c(=O)n(C)c(=O)nc1-2,"inconclusive: 31.6 µM [inhibitor, partial curve]",–
Cc1ccc(C)n1-c1cccc(C(=O)O)c1,active: 1 µM,–
Clc1ccccc1-c1nnc(-c2ccccc2CNc2ccc(Br)cc2)o1,inactive,–
COc1cc(/C=N/NC(=O)c2ccc([N+](=O)[O-])cc2Cl)cc(Br)c1O,inactive,–
CNc1nc(CCN2C(=O)c3ccccc3C2=O)cs1,"inconclusive: 4.47 µM [inhibitor, full curve, poor fit]",–
CCN(CCCNC(=O)c1cc2cc3ccc(OC)cc3nc2s1)c1cccc(C)c1,active: 3.98 µM,–
O=C(Nc1ccccc1)N(C1=NCCCCS1)c1cccc2ccccc12,inactive,–
O=C(O)CCN1C(=O)/C(=C\c2ccc(OCc3ccccc3)c(OCc3ccccc3)c2)SC1=S,inactive,–
COc1ccc2c(c1)c(=O)oc1cc3oc(C)c(C)c3cc12,active: 25.1 µM,–
COc1ccc2sc(/C=C/c3ccccc3O)[n+](C)c2c1,active: 17.8 µM,–
Cc1ccccc1CNC(=O)c1cc2cc(S(=O)(=O)N3CCCCC3)ccc2n1C,"inconclusive: 79.4 µM [inhibitor, single point]",–
O=S(=O)(Nc1nccs1)c1ccc(Nc2nnc(-c3ccccc3)c3ccccc23)cc1,active: 14.1 µM,–
COc1ccc(CN2CCN(C(=O)Cn3c(=O)oc4cc(Cl)ccc43)CC2)c(OC)c1OC,inactive,–
